Values after ≈ are worked out from the molar mass of the structure shown.
Experiments:
[1] = Cytotoxicity on HUVEC cells; assay type: cell-based; details: human, HUVEC cells (primary human umbilical cord endothelial cells)
[2] = Cytotoxicity on BC3 cells; assay type: cell-based; details: human
[3] = Cytotoxicity on THP-1 cells; assay type: cell-based; details: human, THP-1 cells (KSHV-negative macrophage cell line)
[4] = tested on: latent KSHV DNA in BC3 cells; experiment: qPCR detection of latent KSHV DNA; assay type: cell-based, Kaposi Sarcoma Herpesvirus (KSHV)

| SMILES | CC50 at 6 days [1] | CC50 at 6 days [2] | CC50 at 6 days [3] | SI (CC50/EC50) [4] |
| --- | --- | --- | --- | --- |
| Nc1ccc(S(N)(=O)=O)cc1 [SA4, sulfanilamide] | 250 ± 125 µg/mL (≈ 1450 µM) | 100 ± 50 µg/mL (≈ 581 µM) | 125 ± 31 µg/mL (≈ 726 µM) | 12.5 |
| Cc1cc(NS(=O)(=O)c2ccc(N)cc2)no1 [BC6, sulfamethoxazole] | 125 ± 31 µg/mL (≈ 494 µM) | 100 ± 12 µg/mL (≈ 395 µM) | 125 ± 62 µg/mL (≈ 494 µM) | – |

Source: paper PMC6002838 (The Journal of antibiotics, 2017)
